These are yes or no findings as the source states them, for the method shown. In cells and extracts the contact can be indirect. Some binding calls cover weakened binding; strength is not graded here. Where a sequence is shown, tags or fusion partners need not be part of it.
T1: Lsd1-FTP (S. pombe) (UniProt Q9Y802)
T1 sequence: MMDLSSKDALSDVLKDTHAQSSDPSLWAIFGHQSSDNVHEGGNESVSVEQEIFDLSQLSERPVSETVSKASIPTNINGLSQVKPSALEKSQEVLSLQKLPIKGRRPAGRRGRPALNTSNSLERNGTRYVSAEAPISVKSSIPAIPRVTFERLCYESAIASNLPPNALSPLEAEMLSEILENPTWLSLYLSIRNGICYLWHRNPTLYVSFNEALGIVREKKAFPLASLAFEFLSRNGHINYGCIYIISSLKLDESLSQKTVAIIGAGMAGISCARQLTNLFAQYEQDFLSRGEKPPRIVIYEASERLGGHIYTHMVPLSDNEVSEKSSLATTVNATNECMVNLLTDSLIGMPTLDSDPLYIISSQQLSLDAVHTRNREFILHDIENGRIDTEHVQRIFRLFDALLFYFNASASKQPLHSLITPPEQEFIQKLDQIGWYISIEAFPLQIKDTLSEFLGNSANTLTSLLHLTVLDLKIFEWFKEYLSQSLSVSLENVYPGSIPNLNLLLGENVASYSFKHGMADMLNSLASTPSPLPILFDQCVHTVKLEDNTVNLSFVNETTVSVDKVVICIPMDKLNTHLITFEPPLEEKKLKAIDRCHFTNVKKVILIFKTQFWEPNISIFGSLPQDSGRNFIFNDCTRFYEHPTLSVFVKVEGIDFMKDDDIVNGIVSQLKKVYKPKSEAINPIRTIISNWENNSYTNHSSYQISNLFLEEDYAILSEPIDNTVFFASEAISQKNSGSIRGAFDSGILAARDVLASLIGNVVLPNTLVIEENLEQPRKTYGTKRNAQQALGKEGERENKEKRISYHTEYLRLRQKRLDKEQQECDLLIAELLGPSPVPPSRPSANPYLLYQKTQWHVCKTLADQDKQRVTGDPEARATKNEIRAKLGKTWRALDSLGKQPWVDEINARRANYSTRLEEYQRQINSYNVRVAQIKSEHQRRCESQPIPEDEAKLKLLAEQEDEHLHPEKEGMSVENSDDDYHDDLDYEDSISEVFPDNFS

T2: lsd1-ΔHMG-FTP (S. pombe) (UniProt Q9Y802)
T2 sequence: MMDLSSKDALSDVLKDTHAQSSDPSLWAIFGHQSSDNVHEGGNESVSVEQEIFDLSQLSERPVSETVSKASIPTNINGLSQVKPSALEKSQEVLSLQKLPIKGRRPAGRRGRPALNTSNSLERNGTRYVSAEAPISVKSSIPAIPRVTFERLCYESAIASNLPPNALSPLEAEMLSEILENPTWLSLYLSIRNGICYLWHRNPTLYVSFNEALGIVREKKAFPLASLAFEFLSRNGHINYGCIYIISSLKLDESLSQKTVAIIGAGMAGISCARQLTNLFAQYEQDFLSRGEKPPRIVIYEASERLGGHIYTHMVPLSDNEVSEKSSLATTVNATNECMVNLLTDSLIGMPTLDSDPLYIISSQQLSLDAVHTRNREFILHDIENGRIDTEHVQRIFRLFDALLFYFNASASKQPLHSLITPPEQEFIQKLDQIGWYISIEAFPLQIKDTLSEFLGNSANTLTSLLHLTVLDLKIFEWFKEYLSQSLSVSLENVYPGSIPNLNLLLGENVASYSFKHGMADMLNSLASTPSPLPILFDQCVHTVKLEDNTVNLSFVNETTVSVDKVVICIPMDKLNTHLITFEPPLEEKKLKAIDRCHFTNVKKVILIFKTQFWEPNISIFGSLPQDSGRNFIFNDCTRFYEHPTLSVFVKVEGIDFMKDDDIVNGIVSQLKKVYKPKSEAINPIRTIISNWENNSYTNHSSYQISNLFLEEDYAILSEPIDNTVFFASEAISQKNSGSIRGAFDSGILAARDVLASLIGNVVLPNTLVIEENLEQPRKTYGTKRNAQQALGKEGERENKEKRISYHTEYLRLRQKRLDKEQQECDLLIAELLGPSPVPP

T3: Lsd2-FTP (S. pombe) (UniProt Q10135)
T3 sequence: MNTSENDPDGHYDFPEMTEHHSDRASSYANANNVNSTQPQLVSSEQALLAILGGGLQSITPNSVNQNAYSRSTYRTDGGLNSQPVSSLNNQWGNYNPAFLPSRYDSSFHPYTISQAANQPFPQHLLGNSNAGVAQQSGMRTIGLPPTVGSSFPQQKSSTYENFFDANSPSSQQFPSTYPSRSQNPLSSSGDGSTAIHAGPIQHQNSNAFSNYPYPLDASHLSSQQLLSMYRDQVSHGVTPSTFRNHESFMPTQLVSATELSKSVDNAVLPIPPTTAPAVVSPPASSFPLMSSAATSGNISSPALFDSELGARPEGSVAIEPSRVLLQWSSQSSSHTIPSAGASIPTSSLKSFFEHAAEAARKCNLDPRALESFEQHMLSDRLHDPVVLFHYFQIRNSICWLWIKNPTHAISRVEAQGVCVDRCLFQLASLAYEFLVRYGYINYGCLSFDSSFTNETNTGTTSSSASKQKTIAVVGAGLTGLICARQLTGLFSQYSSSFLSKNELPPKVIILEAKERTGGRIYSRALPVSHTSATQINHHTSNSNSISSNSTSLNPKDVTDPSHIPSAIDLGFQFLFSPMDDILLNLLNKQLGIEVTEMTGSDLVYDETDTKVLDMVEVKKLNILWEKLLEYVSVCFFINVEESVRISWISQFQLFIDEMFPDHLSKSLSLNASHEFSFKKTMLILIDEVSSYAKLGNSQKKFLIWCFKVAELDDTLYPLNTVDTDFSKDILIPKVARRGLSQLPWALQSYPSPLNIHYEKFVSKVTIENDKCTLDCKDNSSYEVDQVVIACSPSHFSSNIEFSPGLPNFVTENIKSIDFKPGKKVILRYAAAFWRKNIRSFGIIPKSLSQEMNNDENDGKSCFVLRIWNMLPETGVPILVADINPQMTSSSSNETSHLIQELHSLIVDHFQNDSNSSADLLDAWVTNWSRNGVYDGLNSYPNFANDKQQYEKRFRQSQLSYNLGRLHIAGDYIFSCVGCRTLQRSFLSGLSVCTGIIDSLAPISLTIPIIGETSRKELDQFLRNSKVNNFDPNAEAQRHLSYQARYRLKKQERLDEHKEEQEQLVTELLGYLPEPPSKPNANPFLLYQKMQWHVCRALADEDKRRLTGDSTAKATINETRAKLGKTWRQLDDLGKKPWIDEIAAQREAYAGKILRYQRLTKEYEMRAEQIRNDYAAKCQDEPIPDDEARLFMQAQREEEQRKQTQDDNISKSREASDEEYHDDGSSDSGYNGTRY


Key:
Assay in all cases: co-IP; FTP-tagged Lsd1 or Lsd2 precipitated from S. pombe whole cell extract with IgG Sepharose beads, 4-6 hours at 4°C; western blot with PAP, anti-myc or anti-HA
Lsd1-FTP (S. pombe) = target: T1, Lsd1-FTP (S. pombe)
lsd1-ΔHMG-FTP (S. pombe) = target: T2, lsd1-ΔHMG-FTP (S. pombe)
Lsd2-FTP (S. pombe) = target: T3, Lsd2-FTP (S. pombe)

binding (Lsd1-FTP (S. pombe))	binding (lsd1-ΔHMG-FTP (S. pombe))	binding (Lsd2-FTP (S. pombe))	Binder
binds	binds	–	Phf2-myc (protein, UniProt Q09908 1-538) MPNSSYYDDDGGSFEAASYPFQFDGSRRFPNDLHPTMFEGEESNQNGGSVLIDQAFQDIQNPNVNSNMHLENQFQHFHEPNKESGAFGSYKNDDVAKEIESSKNQETDAKSEQAPFTEDASSSNYAHHRSADSQTKSALPPNVPASSSPLPPMSIAMNIARKRSWPASLAIERDNTADALFSTEDGREEQFNLEGVKTKSGRKVHRPNHFDPLVKLPTRRRGPGRRPVVALAMKCSVCQRLQSPPKNRIVFCDGCNTPFHQLCHEPYISDELLDSPNGEWFCDDCIRRKKQAPLVTGTTARELNLSSEEKKSYLLSLPISQLVDILLFCEQLHPDIPFYSPKTSTIVQELQSKRSAFTATMNEPVTGDQYLSLNNGTESQSKTTKHSTSLPSTEPVEVDKQYMESEKIPTIDEYLQEYSNEDEIVLQVLESFPAAVSFSTITNTIQAKYSNRKIKNSNITRSLNRLVRKNRVLRDARGSSYELNRTFDADRPSVRPDISITGPIPIDWMLYTPHTEDLTENFCTYYMFDETPIVLSSI
binds	–	binds	Raf2-myc (protein, UniProt O74560 1-636) MPPVRAEKKRKTDLIEQVCVTNKAGELVDLEDVLEYGPYSLTGILSSEKDEQEPLFDESIVLGYSIKISPVWTYNLKDVPEKETMSIWIVTPQRRYGILSPSSEYKAIYEQISEKNRLFYLIKTKFKDDMISGTLEDYDNYIEVLKEKLELPSCFQAILLVQKHIRFLLTQMVATSSLHVWSESPFFIRIRSSYEHLILQINKNIYNARQERKKSKLSSNNPSDNNTTMKSSLNQALTLINLPEQPFSISSPTATPQLGVVKRTSPLRFPLNDIWLSGLRIVDPNIESISLWKRIQVSTSPKHQRYISLQEVCSVIAQQLQITNLEALNKLSSHGETLLQIMHTAFTWRGTKLFNDIKHAIGFRSSVQQARSQFRGYCYDYLFMHCNNGEKTSLHLLRTLICMKLDFSNAQLAAKILFHFLLFDIGSGLSGSDYTYEQYINHSAVAFSFTEEIFEKNFVTVLPDFVKLFSISFGYWPAFSFYDELLKLLRNKYPKVYSSTPNLCDQVWLDRTNLFPCNRSTRSTLPYRPTKLLDLASASSCLSKKETDFKQDTGLYSYNLEKVEALKVSPDLQTGIWSCPVQNCLYFAVCDNPYKPSQVIYDHLLGHVDSKFIFKTPSNSVRSFTNKLEHIMYNIN
binds	–	binds	Swd2-GFP-HA (protein, UniProt O60137 1-357) MTTVSITFDLLSSMQPRKWLKNQNFVGEITSLSFDDSGELCLASCTDDTLQLYNCISGKFVKSLASKKYGAHLGRFTHHSNSLIHASTKEDNTVRYLDVVTNRYLRYFPGHKQTVTSIDVSPADETFLSASLDNTIRLWDLRSPNCQGLLNVSSPVVAAFDATGLIFASVSERKYKISLYNIKSFDARPFQDIPLTFLPPHVRIANVEFSTDGKYLLLTTGNDFHYVIDAYSGSELLRVPSKVSTKTQDGNLTYYASACMSPDSKFLFTSYDNEHLCMYQLPELKQTVNSDHIVNSFTEMGLASTTPTSNSHSTENPLAIIPSSTSKNLLPETPSIVRFNPRFSQLVTAHSGVIFWT
